According to PubChem BioAssay AID914 (National Center for Advancing Translational Sciences (NCATS), 2007):
The campaign covered roughly 11,000 compounds. About 220 (2%) were called active. The source calls these results inconclusive, neither active nor inactive. Calls come from the whole dose curve; as a rule, active = well fitted activation curve with a large enough effect in the signal ratio, with a control signal flat (not every such curve was filed as active); inconclusive = small, poorly fitted or top-dose-only effect, or effect the other way, or a change in a side signal; inactive = flat fitted curve, though single readings scatter; the % refers to the signal ratio.

assay: qHTS Assay for Identification of Small Molecule Agonists for Hypoxia Response Element Signaling Pathway; conditions: ME-180 (cervical carcinoma) HRE-bla reporter, beta-lactamase ratio, CoCl2, 17 h
Potency is the fitted concentration of half-maximal effect.

SMILES	Potency
C[C@@H](O)CC(C)(C)N.Oc1c(Cl)c(Cl)c(Cl)c(Cl)c1Cl	inconclusive: 3.98 µM
